Results deposited as PubChem BioAssay AID686943 (Drosophila RNAi Screening Center, 2013).
Assay: 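Fly genes whose loss alters ERK activation after insulin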 (primary screen). System: Drosophila S2R+ haemocyte-like cells expressing YFP-tagged ERK (Rolled). Reagents: long dsRNA against Drosophila genes. Conditions: insulin stimulation versus unstimulated cells; dose and duration not given. Measurement: 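Antibody staining for doubly phosphorylated ERK divided by ERK-YFP signal, as plate z-scores, in insulin-treated and untreated cells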. Direction: replicate 1, z-score of dpERK with insulin and replicate 2, z-score of dpERK with insulin: higher = more active ERK per ERK-YFP after insulin.
The screen tested about 23,000 reagents; below is a random part of those that have a named target and a result. 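Extra replicates exist only for a retested subset of genes; insulin dose and duration not given; both raised and lowered dpERK matter.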 The numbers tell different reagents against one gene apart. A plus sign joins genes that one reagent is predicted to hit. Not all columns of the deposit are shown. Not stated in the record: the amount of reagent, the time to read-out.

With knock-down of His2B:CG33894 + His2B:CG33872 + His2B:CG33902 + 20 more the results were replicate 1, z-score of dpERK with insulin -5.37; replicate 2, z-score of dpERK with insulin -2.01. After knock-down of Cpr23B (GeneID 33480), the record shows replicate 1, z-score of dpERK with insulin 0.72; replicate 2, z-score of dpERK with insulin 2.18. G9a (GeneID 30971) showed replicate 1, z-score of dpERK with insulin 0.3; replicate 2, z-score of dpERK with insulin 0. For Idh (GeneID 44291), the entry reads replicate 1, z-score of dpERK with insulin -0.21; replicate 2, z-score of dpERK with insulin -0.46. After knock-down of CG13876 (GeneID 38031), the record shows replicate 1, z-score of dpERK with insulin 0.25; replicate 2, z-score of dpERK with insulin 0.61. Depletion of c12.1 (GeneID 53435) resulted in: replicate 1, z-score of dpERK with insulin 0.9; replicate 2, z-score of dpERK with insulin 0.07.

Ir94h (GeneID 42769) gave replicate 1, z-score of dpERK with insulin -0.07; replicate 2, z-score of dpERK with insulin -0.23. With knock-down of CG1958 (GeneID 31661), the screen gave replicate 1, z-score of dpERK with insulin -0.4; replicate 2, z-score of dpERK with insulin 0.09. After knock-down of CG18128 (GeneID 37756), the screen gave replicate 1, z-score of dpERK with insulin -0.16; replicate 2, z-score of dpERK with insulin -0.59. Silencing of Fcp3C (GeneID 31294) came out at: replicate 1, z-score of dpERK with insulin 0.64; replicate 2, z-score of dpERK with insulin 0.33. With knock-down of Membrin (GeneID 38614), the screen gave replicate 1, z-score of dpERK with insulin 0.24; replicate 2, z-score of dpERK with insulin 0.11. With knock-down of htt (GeneID 43392), the record shows replicate 1, z-score of dpERK with insulin -0.36; replicate 2, z-score of dpERK with insulin 0.

Against CG13045 (GeneID 39792), the values are replicate 1, z-score of dpERK with insulin 0.59; replicate 2, z-score of dpERK with insulin -0.11. Silencing of Tssk (GeneID 42233) gave: replicate 1, z-score of dpERK with insulin 0.5; replicate 2, z-score of dpERK with insulin 0.72. After knock-down of Cpr47Ec (GeneID 36191) the results were replicate 1, z-score of dpERK with insulin 0.71; replicate 2, z-score of dpERK with insulin 0.32.

Copied from the listing (2 entries):
htt (GeneID 43392): replicate 1, z-score of dpERK with insulin = -0.36; replicate 2, z-score of dpERK with insulin = 0
CG13045 (GeneID 39792): replicate 1, z-score of dpERK with insulin = 0.59; replicate 2, z-score of dpERK with insulin = -0.11

The results go on.
Blos4 (GeneID 39219) showed replicate 1, z-score of dpERK with insulin 0.97; replicate 2, z-score of dpERK with insulin -0.37. Silencing of CG12316 (GeneID 39650) gave: replicate 1, z-score of dpERK with insulin 0.13; replicate 2, z-score of dpERK with insulin 0.73. Silencing of RhoGEF3 (GeneID 38050) #1 gave: replicate 1, z-score of dpERK with insulin 0.1; replicate 2, z-score of dpERK with insulin 0.46. RhoGEF3 (GeneID 38050) #2 scored replicate 1, z-score of dpERK with insulin -0.1; replicate 2, z-score of dpERK with insulin 0.37. RhoGEF3 (GeneID 38050) #3 showed replicate 1, z-score of dpERK with insulin -0.16; replicate 2, z-score of dpERK with insulin -0.18. RhoGEF3 (GeneID 38050) #4 gave replicate 1, z-score of dpERK with insulin -0.12; replicate 2, z-score of dpERK with insulin -0.5.

Against stet (GeneID 38169) #1 the deposit lists replicate 1, z-score of dpERK with insulin 0.39; replicate 2, z-score of dpERK with insulin 0.42. stet (GeneID 38169) #2 scored replicate 1, z-score of dpERK with insulin 1.78; replicate 2, z-score of dpERK with insulin 1.29. Silencing of CG13457 (GeneID 39649) resulted in: replicate 1, z-score of dpERK with insulin -0.05; replicate 2, z-score of dpERK with insulin -1.34. CG1416 (GeneID 35426) showed replicate 1, z-score of dpERK with insulin 0.36; replicate 2, z-score of dpERK with insulin -0.2. After knock-down of Vps20 (GeneID 37581) the results were replicate 1, z-score of dpERK with insulin -0.46; replicate 2, z-score of dpERK with insulin 0.62. CG7248 (GeneID 39356) scored replicate 1, z-score of dpERK with insulin 0.88; replicate 2, z-score of dpERK with insulin 0.26.

Silencing of CG7369 (GeneID 2768961) gave: replicate 1, z-score of dpERK with insulin -0.51; replicate 2, z-score of dpERK with insulin 0.87. Knock-down of fzr (GeneID 45922) gave: replicate 1, z-score of dpERK with insulin 1.31; replicate 2, z-score of dpERK with insulin -0.04. Sb (GeneID 41958) scored replicate 1, z-score of dpERK with insulin 0.03; replicate 2, z-score of dpERK with insulin 0.39. fat-spondin (GeneID 36919) scored replicate 1, z-score of dpERK with insulin -0.01; replicate 2, z-score of dpERK with insulin 0.03.
